AC50 data for 64 compounds are collected here from PubChem BioAssay AID493014 (National Center for Advancing Translational Sciences (NCATS), 2011).

The term AC50 denotes the concentration at which the activity in the assay is half-maximal.

A short description of the experiment: qHTS Assay to Find Inhibitors of Chronic Active B-Cell Receptor Signaling. The settings on record: ABC-DLBCL IkBa-CBG/CBR reporter, luminescence ratio (green luciferase fused to IkBa over red control in TMD8 lymphoma cells), 4 h. The procedure, abridged: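 Cell line TMD8 (human ABC DLBCL), stably expressing tet-inducible CBG68-IkBa fusion and CBR; IMDM/0.5% FBS; cpd up to 46 uM; dox induction, 4 h, 37C/5% CO2; dual luminescence; green/red ratio; MG132 control.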
In general terms: qHTS replaces the single test concentration by a dilution series.

[1] abbreviates: measured here: CBR red luminescence, cell number.
The mark [2] stands for this setting: measured here: IkBa-CBG green luminescence.

This is one part of the list. These are further read-outs of the screen, such as a control signal, another cell line or another target. No call is given for them. Most of these compounds were active or inconclusive in the main read-out, so they are no random draw. Potencies come from curve fits of mixed quality, noted in brackets.

As for `C=CCSc1nnc(NC(=O)CCN2C(=O)C3CC=CCC3C2=O)s1` (stereo unspecified), the AC50 under setting [1] is 29.1 µM [rising, single point].
On the same count and under the same terms, under `COc1cc(/C=N/Nc2nc3ccccc3s2)cc([N+](=O)[O-])c1O` stands 5.01 µM [falling, full curve, poor fit]; under `CCSc1nnc(-c2ccccc2N=Cc2c(C)[nH]n(-c3ccccc3)c2=O)c(=O)[nH]1`, 18.4 µM [falling, partial curve, poor fit].
Same read-out and setting: under `Cc1cccc(NC(=O)c2onc3c2CCCC3)c1C` stands 0.2 µM [falling, full curve, poor fit]; under `Oc1ccc(/C=N/Nc2ccc(C(F)(F)F)cn2)cc1O`, 15.8 µM [falling, single point]; under `CCOc1cc(C(=O)O/N=C(\N)c2ccc([N+](=O)[O-])cc2)cc(OCC)c1OCC`, 35.5 µM [rising, single point].
Still for that read-out and setting: the result for `CC(=O)Oc1ccc2c(=O)oc(-c3ccccc3)nc2c1` reads 0.447 µM [falling, full curve].
In the case of `Cc1ccc(C2C(C#N)=C(N)SC(N)=C2C#N)c(C)c1`, the concentration at half-maximal activity (AC50) under setting [1] was 35.5 µM [falling, single point].
For the compound `CCc1ccccc1NC(=S)N=Nc1c(O)n(C)c2ccc(S(=O)(=O)N3CCOCC3)cc12`, the AC50 under setting [2] is 20.6 µM [falling, partial curve].
Take `Cc1cccc(-n2c(O)c(C=Nc3ccc4c(c3)OCO4)c3ccccc3c2=O)n1`: under setting [1], the AC50 was 17.8 µM [rising, partial curve, poor fit].
The same measure, in the same setting: the result for `CCCSc1ccc2nc(-c3ccccc3)cn2c1` reads 2.06 µM [falling, full curve].
The same measure, in the same setting: under `O=C(CCS(=O)(=O)c1cccs1)Nc1ccc(C(=O)NCc2ccc(F)cc2)cc1` stands 6.51 µM [rising, full curve, poor fit].
On the same count and under the same terms, under `COc1cccc(N/C=C/C(=O)c2ccc(OC)c(OC)c2)c1` stands 35.5 µM [falling, single point]; under `COc1ccc(C(=O)N2CCC(n3nccc3NC(=O)C3CCOC3)CC2)cc1` (stereo unspecified), 0.891 µM [rising, full curve, poor fit].
With `CCN(CC)c1ccc(/C=N/Nc2cccc(C)c2)c(O)c1`, the AC50 under setting [1] is 29.1 µM [rising, single point].
Take `CC1(C)Cc2c(c(-c3ccco3)[nH]c(=O)c2C#N)CO1`: the concentration at half-maximal activity (AC50) under setting [2] is 2.59 µM [rising, full curve, poor fit].
In the case of `Cc1noc(C)c1CSc1ncnc2sc3c(c12)CCC3`, the AC50 under setting [1] is 2 µM [rising, full curve, poor fit].
As to `COc1ccc(Oc2cccc(Cl)c2CNC(=O)CCCC(=O)O)cc1`, under setting [1], the AC50 is 20 µM [rising, partial curve, poor fit].
The same measure, in the same setting: the result for `Cc1ccc(-c2noc(CC(c3ccccc3)c3ccccc3)n2)cc1` reads 0.146 µM [rising, full curve, poor fit]; that for `CCCCc1cc2ccccc2c(OCCN(C)C)n1`, 6.51 µM [rising, partial curve, poor fit].
On the same count and under the same terms, the result for `CCN1CCc2nc(NC(=O)c3ccc4c(c3)OCCO4)sc2C1` reads 22.4 µM [falling, single point]; that for `COc1ccccc1C(=O)NC(=O)COC(=O)c1cccc(NC(C)=O)c1`, 14.1 µM [falling, partial curve, poor fit].
On the same count and under the same terms, the result for `O=C(Oc1cccc(Nc2ncnc3ccccc23)c1)c1cccnc1` reads 35.5 µM [falling, single point]; that for `CCC(=O)NCCc1sc2nc(-c3ccc(OC)cc3)nn2c1C`, 3.55 µM [rising, full curve].
With `C/C(=N/Nc1nc(-c2ccccc2)c(CC(=O)O)s1)c1ccccc1`, under setting [1], the AC50 was 12.6 µM [falling, partial curve].
On the same count and under the same terms, under `O=C(C(NS(=O)(=O)c1cccs1)c1ccccc1)N1CCN(c2ccccc2F)CC1` (stereo unspecified) stands 4.11 µM [falling, single point].
Take `Cc1ccc(C)c(Cn2nnc(C(=O)Nc3ccc4c(c3)OCCO4)c2N)c1`: under setting [1], the AC50 was 5.17 µM [falling, full curve].
Same read-out and setting: under `CCC(C)C(=O)Nc1nnc(SCC(=O)Nc2ccccc2F)s1` (stereo unspecified) stands 1.12 µM [rising, full curve, poor fit]; under `CNC(=O)c1c(NC(=O)C2=COCCO2)sc2c1CCC(C)C2` (stereo unspecified), 0.316 µM [rising, full curve, poor fit].
With `c1ccc(-c2noc(CSc3nnc(Cc4cccs4)n3-c3ccccc3)n2)cc1`, the AC50 under setting [1] is 29.1 µM [falling, single point].
As to `CN(C)S(=O)(=O)c1ccc(NC(=O)c2ccc3ncsc3c2)cc1`, the AC50 under setting [1] is 14.1 µM [falling, partial curve, poor fit].
On the same count and under the same terms, the result for `O=C1NC(c2ccccc2O)Nc2ccccc21` (stereo unspecified) reads 35.5 µM [falling, single point]; that for `Cc1cc(NC(=O)c2cccc(COc3ccc(Br)cc3)c2)no1`, 16.4 µM [falling, single point]; that for `CCOc1ccccc1-n1nnnc1SCC(=O)O`, 35.5 µM [rising, single point].
Consider `O=C(/C=C/c1ccncc1)c1ccc(NC(=O)c2ccccc2F)cc1`, for which the concentration at half-maximal activity (AC50) is, setting by setting: under setting [1], 25.9 µM [falling, partial curve, poor fit]; under setting [2], 32.6 µM [falling, partial curve, poor fit].
Take `O=C(COC(=O)Cc1ccccc1F)NCCc1ccccc1`: under setting [1], the AC50 is 6.51 µM [rising, single point].
Take `CC(=O)Nc1nc2ccccc2n1CCOc1ccccc1Cl`: the AC50 under setting [1] was 20.6 µM [rising, partial curve, poor fit].
Still for that read-out and setting: the result for `CCC1(C)Cc2ccccc2-c2nc(NN)[nH]c(=O)c21` (stereo unspecified) reads 11.2 µM [falling, partial curve, poor fit]; that for `CCOC(=O)c1c(NC(=O)C2C3C=CC(C3)C2C(=O)O)sc2c1CC(C)(C)OC2` (stereo unspecified), 5.01 µM [rising, full curve, poor fit]; that for `O=C(NCc1ccccc1Cl)c1cnc2n(c1=O)CCS2`, 6.51 µM [rising, single point].
Consider `COc1ccc(O)c(/C=N/NC(=S)Nc2cccc(S(=O)(=O)N(C)C)c2)c1`, for which the AC50 under setting [1] was 13 µM [falling, partial curve, poor fit].
The same measure, in the same setting: under `COc1cc(C(=O)Nc2cc(Cl)ccc2-n2cncn2)ccc1OC(F)F` stands 6.51 µM [rising, partial curve, poor fit]; under `COc1ccc(CCNC(=O)c2ccc3c(=O)n4c(nc3c2)CCC4)cc1OC`, 0.366 µM [rising, partial curve, poor fit].
As for `CN(C)c1c(-c2ccccc2)cc(-c2ccccc2)[nH]c1=O`, the AC50 under setting [1] is 10 µM [falling, partial curve, poor fit].
On to `O=C(Nc1nc(-c2ccccn2)cs1)c1cc2ccccc2o1`, for which the half-maximal activity concentration (AC50) under setting [1] is 11.2 µM [falling, single point].
Still for that read-out and setting: the result for `CCCCCC(C)NC(=S)NC(=O)c1cc(S(=O)(=O)N2CCOCC2)ccc1C` (stereo unspecified) reads 29.1 µM [falling, single point]; that for `O=C(O)c1ccccc1C(=O)Nc1ccc(-c2csc(-c3ccccc3)n2)cc1`, 1.84 µM [rising, partial curve].
Regarding `CC(=O)c1ccc(Oc2ncnc(N)c2[N+](=O)[O-])cc1`, the AC50 under setting [1] was 11.2 µM [falling, partial curve, poor fit].
Turning to `CCN(CC)S(=O)(=O)c1ccc(N/N=C(\C)c2ccc(OC)cc2O)nc1`, the AC50 under setting [1] was 35.5 µM [rising, single point] and the AC50 under setting [2] is 3.98 µM [falling, full curve, poor fit].
In the case of `O=C(Nc1nc2ccccc2s1)C1CC(=O)N(c2ccc(Br)cc2)C1` (stereo unspecified), under setting [1], the AC50 is 32.6 µM [falling, single point].
The same measure, in the same setting: the result for `COc1ccccc1C(=O)NCC(=O)NC(C)CCc1ccccc1` (stereo unspecified) reads 35.5 µM [falling, single point]; that for `O=[N+]([O-])c1ccc(/C=N/Nc2ccccn2)cc1`, 1.26 µM [rising, full curve, poor fit].
On the same count and under the same terms, under `Cc1ccnc(NC(=O)CCC2CCCCC2)c1` stands 0.164 µM [rising, partial curve, poor fit].
Still for that read-out and setting: under `CCOC(=O)C1CCN(C(=O)C2CC(=O)N(c3ccc(C)cc3)C2)CC1` (stereo unspecified) stands 7.31 µM [falling, single point]; under `Clc1cccc(-n2cc(-c3ccccc3)c3c(N4CCCCC4)ncnc32)c1`, 17.8 µM [rising, single point].
In the case of `O=C1/C(=C/c2cccnc2)SC(=S)N1c1ccc(O)cc1`, the AC50 under setting [1] is 3.98 µM [falling, partial curve, poor fit].
For `CCc1ccc(-c2csc(NC(=O)Oc3ccccc3)n2)cc1`, the AC50 under setting [1] was 1.16 µM [rising, full curve, poor fit].
Take `CC1(C)CC(=O)c2c(nn(-c3ccccc3)c2-c2ccncc2)C1`: under setting [1], the concentration at half-maximal activity (AC50) is 0.058 µM [falling, full curve, poor fit].
Take `O=C(c1ccc(S(=O)(=O)c2cccc(Cl)c2)c([N+](=O)[O-])c1)N1CCN(Cc2ccccc2)CC1`: the AC50 under setting [1] was 13 µM [falling, partial curve, poor fit].
On the same count and under the same terms, under `COc1cccc(C(=O)NCCN2C(=O)S/C(=C/c3cccs3)C2=O)c1OC` stands 5.62 µM [falling, partial curve, poor fit]; under `N#C/C(=C\c1cccnc1)c1nc2c(s1)CCCC2`, 7.08 µM [rising, full curve, poor fit].
Same read-out and setting: the result for `Cc1ccc(C(C)C)c(OCC(=O)Nc2ccccc2N2CCN(C)CC2)c1` reads 35.5 µM [falling, single point]; that for `Cc1cc(C(=O)N/N=C/C=C/c2ccccc2)c(C)o1`, 14.6 µM [falling, partial curve, poor fit]; that for `CN1CCC(N(C)C(=O)c2ccccc2Nc2ccc(SC(F)F)cc2)CC1`, 6.31 µM [rising, single point].
